These are yes or no findings as the source states them, for the method shown. Some entries that bind do so weakly or less than the wild type.
Target: human CR2 on primary human cells (B cells in PBMCs; tonsil follicular dendritic cells) (human) (UniProt P20023)
Experiment: flow cytometry on CD20+ B cells in human PBMCs; APC fluorescence of pre-bound C3dg:Streptavidin-APC after washing, followed over time

Protein sequences, listed by entry. Tags and fused reporters are not part of them. Lines headed by an entry give the natural chain unless they say otherwise; changes in a name come on top.
UniProt P20023: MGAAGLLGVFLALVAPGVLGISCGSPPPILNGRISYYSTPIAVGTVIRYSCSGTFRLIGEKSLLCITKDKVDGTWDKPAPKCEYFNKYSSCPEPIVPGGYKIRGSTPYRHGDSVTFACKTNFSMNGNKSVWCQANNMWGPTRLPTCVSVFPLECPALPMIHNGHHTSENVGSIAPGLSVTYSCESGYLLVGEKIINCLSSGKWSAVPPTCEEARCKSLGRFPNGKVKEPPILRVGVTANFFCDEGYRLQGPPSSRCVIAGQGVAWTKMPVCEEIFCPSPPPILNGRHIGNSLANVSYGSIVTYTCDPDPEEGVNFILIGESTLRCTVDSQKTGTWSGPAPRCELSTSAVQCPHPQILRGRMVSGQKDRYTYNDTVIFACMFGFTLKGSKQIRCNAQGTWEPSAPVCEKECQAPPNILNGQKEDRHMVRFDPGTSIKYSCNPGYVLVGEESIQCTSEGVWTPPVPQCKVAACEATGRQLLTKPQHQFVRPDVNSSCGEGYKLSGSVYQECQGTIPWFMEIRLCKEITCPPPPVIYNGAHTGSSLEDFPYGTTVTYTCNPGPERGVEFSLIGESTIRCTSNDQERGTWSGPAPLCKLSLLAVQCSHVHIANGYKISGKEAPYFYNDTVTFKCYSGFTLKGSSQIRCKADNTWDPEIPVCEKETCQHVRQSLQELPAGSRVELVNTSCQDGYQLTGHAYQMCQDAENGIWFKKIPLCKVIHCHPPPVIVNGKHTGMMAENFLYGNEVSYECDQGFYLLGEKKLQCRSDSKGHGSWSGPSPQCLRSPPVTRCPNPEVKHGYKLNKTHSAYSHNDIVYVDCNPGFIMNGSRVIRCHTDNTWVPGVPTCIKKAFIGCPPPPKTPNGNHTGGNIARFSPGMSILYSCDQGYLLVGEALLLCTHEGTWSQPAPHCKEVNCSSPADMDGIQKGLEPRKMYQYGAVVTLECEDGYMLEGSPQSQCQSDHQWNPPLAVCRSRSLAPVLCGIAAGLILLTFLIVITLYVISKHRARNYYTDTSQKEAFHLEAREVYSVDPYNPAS
UniProt P01024: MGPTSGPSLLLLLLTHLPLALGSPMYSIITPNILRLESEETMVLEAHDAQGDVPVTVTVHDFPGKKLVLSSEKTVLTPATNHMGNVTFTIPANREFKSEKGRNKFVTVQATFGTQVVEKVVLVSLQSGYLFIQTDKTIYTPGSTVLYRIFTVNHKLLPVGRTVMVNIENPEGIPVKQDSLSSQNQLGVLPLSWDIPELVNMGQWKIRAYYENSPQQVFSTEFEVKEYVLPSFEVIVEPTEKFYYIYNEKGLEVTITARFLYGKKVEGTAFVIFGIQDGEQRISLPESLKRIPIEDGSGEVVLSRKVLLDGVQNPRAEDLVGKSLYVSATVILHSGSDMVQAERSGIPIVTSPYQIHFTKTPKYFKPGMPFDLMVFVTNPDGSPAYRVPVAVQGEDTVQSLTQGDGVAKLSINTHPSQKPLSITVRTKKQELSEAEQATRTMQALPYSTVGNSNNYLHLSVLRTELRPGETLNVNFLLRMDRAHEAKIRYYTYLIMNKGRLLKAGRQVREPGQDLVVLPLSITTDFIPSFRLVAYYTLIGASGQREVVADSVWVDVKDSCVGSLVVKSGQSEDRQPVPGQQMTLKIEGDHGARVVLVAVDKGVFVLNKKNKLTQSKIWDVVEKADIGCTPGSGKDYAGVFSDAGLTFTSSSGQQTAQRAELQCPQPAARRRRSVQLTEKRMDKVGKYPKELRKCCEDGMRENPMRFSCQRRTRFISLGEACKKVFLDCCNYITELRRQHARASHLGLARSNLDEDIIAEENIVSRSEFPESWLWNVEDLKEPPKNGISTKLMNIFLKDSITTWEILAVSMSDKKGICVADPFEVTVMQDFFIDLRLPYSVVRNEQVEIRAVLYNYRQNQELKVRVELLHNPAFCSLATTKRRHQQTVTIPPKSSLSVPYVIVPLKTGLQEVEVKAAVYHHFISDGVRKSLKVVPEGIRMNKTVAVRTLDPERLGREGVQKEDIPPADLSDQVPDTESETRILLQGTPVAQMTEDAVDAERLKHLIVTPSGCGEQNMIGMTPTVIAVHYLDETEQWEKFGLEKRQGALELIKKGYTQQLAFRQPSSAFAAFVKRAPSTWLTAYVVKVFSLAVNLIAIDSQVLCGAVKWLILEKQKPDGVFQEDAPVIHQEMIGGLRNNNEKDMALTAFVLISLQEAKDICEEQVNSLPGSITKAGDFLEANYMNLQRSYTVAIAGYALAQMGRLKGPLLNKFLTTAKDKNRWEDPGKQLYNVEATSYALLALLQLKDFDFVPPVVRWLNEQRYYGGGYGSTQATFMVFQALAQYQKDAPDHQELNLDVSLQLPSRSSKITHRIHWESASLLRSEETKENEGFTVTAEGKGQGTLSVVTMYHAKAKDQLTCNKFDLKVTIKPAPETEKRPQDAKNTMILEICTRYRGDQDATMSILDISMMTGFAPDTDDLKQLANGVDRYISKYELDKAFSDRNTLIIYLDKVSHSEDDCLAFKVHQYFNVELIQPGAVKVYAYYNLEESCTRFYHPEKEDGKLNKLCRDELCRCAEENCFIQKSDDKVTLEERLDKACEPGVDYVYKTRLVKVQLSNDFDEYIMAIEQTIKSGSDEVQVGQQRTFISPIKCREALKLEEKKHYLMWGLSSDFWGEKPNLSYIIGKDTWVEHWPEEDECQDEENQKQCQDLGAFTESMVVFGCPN

Substance: C3dg:Streptavidin-APC complexes (from UniProt P01024 955-1303; P22629 37-163) (ligand)
- binding: binds
